Source: publication PMC2043495
No constants are given. Whether binding was seen depends on the method and setting. Binding seen in cells or lysates may run through a third protein. Some binding calls cover weakened binding; strength is not graded here. Where a sequence is shown, tags or fusion partners need not be part of it.

The chains behind the UniProt entries cited, without tags or fusion partners.
UniProt Q16539: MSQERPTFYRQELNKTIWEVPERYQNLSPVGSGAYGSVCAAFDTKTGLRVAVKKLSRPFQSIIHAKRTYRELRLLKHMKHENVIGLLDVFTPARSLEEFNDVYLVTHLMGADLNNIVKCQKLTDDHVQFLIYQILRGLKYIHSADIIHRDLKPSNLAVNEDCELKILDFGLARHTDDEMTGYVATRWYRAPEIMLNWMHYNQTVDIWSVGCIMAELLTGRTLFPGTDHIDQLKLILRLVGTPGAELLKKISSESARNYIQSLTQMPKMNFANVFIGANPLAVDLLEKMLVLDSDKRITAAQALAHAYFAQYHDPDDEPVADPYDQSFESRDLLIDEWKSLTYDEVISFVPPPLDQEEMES

T1: Flag-TXNL1 (UniProt O43396)
T1 sequence: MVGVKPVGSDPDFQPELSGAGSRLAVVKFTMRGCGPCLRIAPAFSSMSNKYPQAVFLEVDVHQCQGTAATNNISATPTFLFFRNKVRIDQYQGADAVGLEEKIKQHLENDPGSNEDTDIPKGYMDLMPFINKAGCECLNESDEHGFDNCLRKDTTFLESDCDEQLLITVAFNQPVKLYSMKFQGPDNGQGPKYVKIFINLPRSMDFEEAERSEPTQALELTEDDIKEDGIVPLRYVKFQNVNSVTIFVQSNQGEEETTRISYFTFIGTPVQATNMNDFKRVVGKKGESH


What was measured:
Flag-TXNL1 = target: T1, Flag-TXNL1; experiment: co-IP; HeLa cells co-transfected with Flag-TXNL1 and His6-p38MAPK; lysis in TNE (20 mM Tris pH 7.4, 150 mM NaCl, 1 mM EDTA) with 10% glycerol, 1% NP-40; IP with or without the indicated antibodies, protein-A Sepharose; western blotting
His6-p38MAPK = His6-p38MAPK (UniProt Q16539); experiment: as above

binding (Flag-TXNL1) | binding (His6-p38MAPK) | Molecule
binds weakly | – | His6-p38MAPK (from UniProt Q16539 1-360)
– | binds weakly | Flag-TXNL1 (protein, UniProt O43396 1-289) MVGVKPVGSDPDFQPELSGAGSRLAVVKFTMRGCGPCLRIAPAFSSMSNKYPQAVFLEVDVHQCQGTAATNNISATPTFLFFRNKVRIDQYQGADAVGLEEKIKQHLENDPGSNEDTDIPKGYMDLMPFINKAGCECLNESDEHGFDNCLRKDTTFLESDCDEQLLITVAFNQPVKLYSMKFQGPDNGQGPKYVKIFINLPRSMDFEEAERSEPTQALELTEDDIKEDGIVPLRYVKFQNVNSVTIFVQSNQGEEETTRISYFTFIGTPVQATNMNDFKRVVGKKGESH
